# Source: PubChem BioAssay AID1508600 (Functional Genomics Laboratory (NCATS/FGL), 2020)
# Screen size: about 53,000 sequences; about 3,700 (7%) were called active.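 The calls were made as follows: active = gene knockdowns whose robust z-score for IL-1 alpha signal is at least 2 or at most -2, so actives lie on both sides; inactive = the rest.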 Some of the results follow.
# Assay: Components of the Cytosolic LPS Sensing Pathway: Gene Identification via Genome-wide siRNA Screen;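 also: robust z of the log signal after scaling to non-targeting control siRNA wells of the plate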
# Conditions: RAW264.7 macrophages, IL-1a HTRF, actives lie on both sides, screened at 100 nM (by protocol), cells primed 5 h with Pam3CSK4 first
# Method in brief: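 Using IL-1a HTRF as read-out, the screen measured release from RAW264.7 cells after 48h siRNA knockdown (100 nM), 5 h Pam3CSK4 priming and 24 h cytosolic LipidA. Values were expressed relative to negative-control wells as robust z-scores.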
row,Sequence,z-score
1,GGUGUGCUAUACAUUAAGATT against Zgrf1,inactive: 0.848
2,CCAGAUUCCUCUUGGCCGATT against Spryd7,inactive: 0.36
3,CCUACGAGUUGUUAAGGACTT against Pdzd7,inactive: -0.78
4,GCAAUCAUUGAAUCCACUCTT against Spag9,active: 2.16
5,GCGGCAUAAGUCCAAGCACTT against Cdk12,inactive: -0.765
6,GCAGGCAAGGUAUACUUGATT against Cbfb,inactive: 0.138
7,CCGGAAUAUCCACUAUAAUTT against Otud5,inactive: 1.16
8,GGACUUUACAGACACUUUUTT against Kdm1b,inactive: -1.57
9,GGAUUUCCUUGGUUCUUUUTT against Mylip,inactive: 0.145
10,GCUAAGCGGAAUGCACUCGTT against Cxcl5,active: -2.23
11,CCGGGUACAGUCUUUUUGGTT against Zfp764,inactive: 0.778
12,GGCCCUAAUGCAUGUGUACTT against Gp9,inactive: -0.0585
13,GGAAUUAUAAAAGACCACGTT against Kctd12b,active: 2.39
14,GGAAUGGUUAGAGUUCUUUTT against Ercc2,inactive: 0.285
15,CCCAUGCUAUCAAUCAUUUTT against Olfr308,active: 2.51
16,GGGAAGCACAAGGUUUAGUTT against Brca1,inactive: 0.531
17,GCGCUUACCGAACAACUGATT against Tmprss13,inactive: -0.497
18,GGGCAUCAUUAAAAGGAAATT against Rnf215,inactive: 0.0844
19,GGAAACACUGAAAAAGAAUTT against Casp2,inactive: 0.111
20,GGAAGAUUGCAUUUUGAGATT against Akap3,inactive: -1.13
21,GGAGAGUACAGACACUGAGTT against Masp2,inactive: -0.22
22,GGAUGGAUGUUUGCAUAAATT against Msx2,active: 5.06

row,Sequence,z-score
1,CCACCGUUUCGUACAUAAATT against Gcat,inactive: -0.168
2,CCUACUUGUUUUGGGCUGGTT against Olfr1384,inactive: 0.558
3,GGAAAUCAGUUUUCCUGGATT against Olfr649,inactive: 0.177
4,GGCCUCUUUUGGUAUUCCATT against Zfp42,inactive: 0.946
5,CCUUGGAUGCCUUUUACUGTT against Olfr1428,inactive: 0.0584
6,GCCGAGACAAUGGAAAUAATT against Phtf1,inactive: 1.44
7,GCUGAUCUAAGGCUCAAAATT against F830005K03Rik,inactive: 0.804
8,GGUAAGACCUCACUUGGUCTT against Lrrc29,inactive: -0.591
9,GGCCUUUCAUGAAAGCUCATT against Ublcp1,active: -3.07
10,GGGCUCAUGGGAAUUUCUUTT against Vill,inactive: -0.466
11,GGCUUGAUUUCAACCUUGUTT against Atic,inactive: -0.504
12,CUUAAAGGAAUCCUGGUGGTT against Fam169b,inactive: 0.0229
13,GGUUUAUAGGGAAAGAUUUTT against Pde7b,inactive: 0.0706
14,GCGGUUCUAAGGAUACCGATT against Txndc17,active: 2.52
15,GGUCUUGAUUAUAAGCCCATT against Pde4dip,inactive: -0.471
16,CCAUUUUUGCUCAAUUUGCTT against Eif1ax,inactive: -0.943
17,CCCGUUCAUAUACUUCUUUTT against Gpr183,inactive: -0.23
18,GGUACCUGAGUCCAUCUCATT against Sntb1,inactive: -0.219
19,GGAAAACAUGGAGAAGAAATT against Lars,inactive: 0.0824
20,GGUGUCUGGCAAGUACAAATT against Zg16,inactive: 1.53
21,GCAGCAUCCAACUUCCGCUTT against Ffar2,active: 3.35
22,GGUACUAAAGUCAUGUUUGTT against Art2b,inactive: -0.193

row,Sequence,z-score
1,GCAACGAGUCUACGUCAUCTT against Pex14,inactive: 1.38
2,GGCUGUCUCCCUAGUGAAATT against Shroom3,inactive: -0.786
3,GGGCUACAUGAAAAUUCUGTT against Aicda,inactive: -0.146
4,GCGAGUCCUGCCUAUCGAUTT against Pnmt,inactive: -0.166
5,GCGAGUACUUACUCUUCGUTT against Rpl3,inactive: -0.355
6,GGGAGUGAUUCAACAUUACTT against Galk1,inactive: 0.306
7,GGGUUCUUUCUGAGAGAAATT against Tnfrsf1a,inactive: -0.43
8,GCCCAUAACAAAACAUCUATT against Cma1,inactive: 0.924
9,CGGUUGAUGGAAAAAUACATT against Ppef2,active: 2.43
10,GCUGUAUGAUUGCCGAAAUTT against Dagla,inactive: 1.32
11,GCUAAAGAACGUGCCAAUGTT against Tra2b,inactive: 0.898
12,GGAAUUGGUUUCAUUCAUCTT against Impdh1,inactive: 1.03
13,GGAGAAACUCUUCAGGCUUTT against Tceal8,active: -2.19
14,GACACCACAGUCAAAUCUGTT against Agr2,active: -2.26
15,GCUGUGGAAUAAAACUAUUTT against Rsl24d1,inactive: 0.897
16,CGGGAAAUAAUUUUUGGUUTT against Snx4,inactive: 0.756
17,CCAAUUGAUGUCAACAAGUTT against Atp7b,inactive: 0.94
18,GGAACAGAUGAAACCAUUATT against Psmc1,inactive: -1.78
19,GGUGGAUGUUCGCAUGAUUTT against Ip6k1,inactive: -1.2
20,GGUGCAAAGGAUAACUCGGTT against Tfpt,inactive: 1.14
21,CCGGCACUGCUUUUCUACUTT against Ltb4r2,inactive: -0.0313
22,GGAAUACUGCAGUGGCAUCTT against Olfr850,inactive: 0.453

row,Sequence,z-score
1,CGAAAAAGGGCUUUUAACUTT against Ndufs1,inactive: 0.757
2,GGACUGUGACAUAUUCUUUTT against Zfp54,active: 2.74
3,GUUCCCUACAAGUUCUUCCTT against Phox2a,inactive: 1.54
4,GCCUUAAUGUUUCUGUGAGTT against Pag1,inactive: -0.036
5,GGACAUUUUACAGACUCCUTT against Idi2,inactive: -0.73
6,GGUGUUCUGGGAAAUUAAATT against Cdca7,inactive: -1.41
7,GGUAAACUAGACACGAAGCTT against Fgf23,inactive: -0.211
8,GCUAGAUGAACGAGCGAACTT against Slc25a1,inactive: 0.551
9,CCUUAGGUACUCUAAGGAATT against D1Pas1,inactive: -0.109
10,GCUGAAAUAUGUGAGAGCATT against Sdcbp,inactive: 0.016
11,GCACUUCAAUCCAGUGUCUTT against Pdgfd,inactive: -1.27
12,GGUGUUUGCAUUGUACAGGTT against Zfp598,inactive: -0.161
13,GGCUAAGAACCCACAGGAGTT against Emc10,inactive: 0.283
14,CCUUUUACCAAAACACACATT against Zfp148,inactive: -1.02
15,GGCCGAAGUCCAAAAUCUCTT against Ranbp9,inactive: 0.716
16,GCCGAAACCUCUAUAAGCUTT against 4833408A19Rik,inactive: 0.504
17,GCAAGCAUAGAGCAAAUAUTT against Gosr2,inactive: 0.586
18,GCACAUAGUAAGAACUUAUTT against Prorsd1,inactive: -0.774
19,GGCUGACAGGAUUAUCACATT against Hibadh,inactive: -1.25
20,GGACGAAUAGAAAUCAUAGTT against Cd84,inactive: -0.468
21,GGAAAUUCAUGUGACUAUGTT against Vamp7,inactive: -0.359
22,GGCUGUUCAUCAGCAGAUUTT against Nme6,inactive: 0.351

row,Sequence,z-score
1,GCAAGUCAUAACGAGGACUTT against Akr1b10,inactive: -0.0493
2,GCACACGAAGCAUUGACACTT against Fam117b,inactive: -0.137
3,GCUGUUUGAACUCGCCCGATT against Cuedc1,inactive: 0.0772
4,CCAAAAAAUAGUCCGGUUGTT against Cldn34b3,inactive: -0.12
5,GGUCAAGGAGCCACAAUUGTT against Rab30,inactive: -1.11
6,GCCUCUGUCAUUGAAGCUGTT against Sun3,inactive: 1.28
7,CGGAAUAAUCUUGUCUCCGTT against Alox12e,inactive: -0.0183
8,GGCUCAUCAUUUACUUAAUTT against Slc22a3,inactive: -0.954
9,GGGUAUAACAAGACUACAATT against Dctn3,inactive: -0.121
10,GGAUGAACAGCUGUAGAAATT against Ears2,inactive: 0.292
11,CCCAAGCACCAGCCCUAUATT against Frmd8,inactive: -1.58
12,CCCAUGGAACGGGAAGCUUTT against Serpinb9d,inactive: -0.554
13,GGAGGAAUAUCAGUCCCUGTT against Ufc1,inactive: -0.485
14,CCUCCUAAUAUGUUAAUACTT against Gmfb,inactive: -0.235
15,GGCGGAGUUCUCAAGACUUTT against Nudt18,active: 3.55
16,GGACAUUGACAAAAUCAUCTT against Sec14l2,inactive: -1.57
17,GGUGAAGAGGAAGAUCCUGTT against Ctdnep1,inactive: 0.421
18,GCCAGAUCAUUGUAUCAAUTT against Tmx3,inactive: 1.27
19,GGAAGAACAAUUGUGGCAUTT against Abca9,inactive: -1.13

# A run of entries from further up:
row,Sequence,z-score
12,CUUAAAGGAAUCCUGGUGGTT against Fam169b,inactive: 0.0229
13,GGUUUAUAGGGAAAGAUUUTT against Pde7b,inactive: 0.0706
14,GCGGUUCUAAGGAUACCGATT against Txndc17,active: 2.52
15,GGUCUUGAUUAUAAGCCCATT against Pde4dip,inactive: -0.471
16,CCAUUUUUGCUCAAUUUGCTT against Eif1ax,inactive: -0.943
